# Publication PMC7819943, “Rice protein-binding microarrays: a tool to detect cis-acting elements near promoter regions in rice”
# By UniProt entry, the sequences of proteins in these tests, tags left out.
# UniProt Q0JBA9, entry or part of it: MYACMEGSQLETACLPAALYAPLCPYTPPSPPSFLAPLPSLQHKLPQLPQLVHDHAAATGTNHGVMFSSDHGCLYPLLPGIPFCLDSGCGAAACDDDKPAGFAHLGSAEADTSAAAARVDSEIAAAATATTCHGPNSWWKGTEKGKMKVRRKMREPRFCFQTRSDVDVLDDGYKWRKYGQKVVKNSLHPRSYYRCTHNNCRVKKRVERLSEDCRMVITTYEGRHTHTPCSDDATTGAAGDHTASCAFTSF
# The other results are listed elsewhere or left out.
# Target: OsWRKY34 (Oryza sativa, UniProt Q0JBA9 1-250)
# Experiment: protein-binding microarray (RPBM); PBS, 2% BSA, 51.3 ng/ul salmon testes DNA, 50 uM zinc acetate, 200 nM TF, 25 C, 1 h; high values mean tight binding
# Settings: protein: recombinant; tags: N-terminal polyhistidine and DsRed monomer fusion (pET32a); label: CyDye5-dUTP incorporated in the synthesized complementary strand; 3' TTTTT single-stranded linker to array surface; dsDNA, one strand shown
# Method in brief: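 For the binding signal, per-feature fluorescence intensity was read in arbitrary units on an Axon 4000B scanner. Before scanning, a 2% BSA-blocked custom Agilent array made double-stranded with Cy5-dUTP was washed after 1 h at 25 °C with 200 nM protein and 50 µM zinc acetate. The proteins were Ni–NTA-purified transcription factors with N-terminal polyhistidine and DsRed fusions, expressed in E. coli BL21-CodonPlus.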
row,Sequence,binding signal
1,CCAGCCACATCGCAGACTATGAATGCAAACAACGCTTATCCGGAGTCACCTAGTGCAG,8560 fluorescence intensity (a.u.)
2,ACCGCTTCAGCTTCCTCTCGCCGGCGTCGCGGCCGTCGTCCGGAGTCACCTAGTGCAG,8980 fluorescence intensity (a.u.)
3,TCTCTCGGCCCTCGTCCCGTCCCGTCTCGCCTCCTCCGCACGGAGTCACCTAGTGCAG,13600 fluorescence intensity (a.u.)
4,TTAGGGGTAGGAGGGGTCTCCACATGGCGGCGGCGGCGGCCGGAGTCACCTAGTGCAG,11600 fluorescence intensity (a.u.)
5,TTGCTTGCTGCCCAGTATTGGGAGGGGCCGAAGGGCAATGCGGAGTCACCTAGTGCAG,8100 fluorescence intensity (a.u.)
6,GCTGCCTGCCTGACCAATCCGTTATCTTCTTCCCCGATGCCGGAGTCACCTAGTGCAG,8510 fluorescence intensity (a.u.)
7,GCTAATAAGTGCTTACATTGTTTTGGATGATCACCAGCAACGGAGTCACCTAGTGCAG,8080 fluorescence intensity (a.u.)
8,ACATTGCCCTACTCCTCACGCTCTTTCGATCTTCCTCCTCCGGAGTCACCTAGTGCAG,8120 fluorescence intensity (a.u.)
9,ATATATCTTTGATGGTCGATGGCTGTTGGGTTTGTGGGCTCGGAGTCACCTAGTGCAG,11200 fluorescence intensity (a.u.)
10,TGTTAAAACACCCTTTTTCACTTTTCTAGCCGTTCACTTTCGGAGTCACCTAGTGCAG,9280 fluorescence intensity (a.u.)
11,TGTTCTTTTTTTTTACACGCGTTTTTTTTACATTGTCGTTCGGAGTCACCTAGTGCAG,18400 fluorescence intensity (a.u.)
12,AACCAATCACAACCCTGCACCATTTATTTATATCTACTTTCGGAGTCACCTAGTGCAG,9330 fluorescence intensity (a.u.)
13,TACTTTTCAAAATCCATCTTTATTTTTTTATATTTAATTCCGGAGTCACCTAGTGCAG,9370 fluorescence intensity (a.u.)
14,GGCTTTTTCTTTCGGGAGGAGGGATTTGGGTAGCAATGGCCGGAGTCACCTAGTGCAG,9720 fluorescence intensity (a.u.)
15,GGTCATTTCCATCTTGCGTCGTTAAATGCATTGTTTCTCCCGGAGTCACCTAGTGCAG,11700 fluorescence intensity (a.u.)
16,GATTCCTTTCTGGACTATCTTTGTTTCTTATAGAGGACATCGGAGTCACCTAGTGCAG,9560 fluorescence intensity (a.u.)
17,TTTTGGTACGTTATTAGTGTGTGTATCAGTTTTTAAGTTCCGGAGTCACCTAGTGCAG,9430 fluorescence intensity (a.u.)
18,AGGCCTGTGTTGCCGATCTGTTGCCTGTTGTGTAAATTTTCGGAGTCACCTAGTGCAG,8710 fluorescence intensity (a.u.)
19,CCTGTTCCTGTGGCTATGTCTCATTTGGTTACGTTCAAGCCGGAGTCACCTAGTGCAG,9940 fluorescence intensity (a.u.)
20,TGCAGCTGAACCAGTCAACATCTCTGCACGCTGCATTCCACGGAGTCACCTAGTGCAG,8860 fluorescence intensity (a.u.)
21,TATATATATTTATCACCGGTTTATTTTGGTCTGGTCTTTTCGGAGTCACCTAGTGCAG,13000 fluorescence intensity (a.u.)
22,GGTTTTTCAGCTTCTATGTTCTCGTTCATTTTCTGAATTCCGGAGTCACCTAGTGCAG,13000 fluorescence intensity (a.u.)
23,GTTATGGTCCGTTTGCAAAAATTATGAGGGTCTCGTACACCGGAGTCACCTAGTGCAG,10300 fluorescence intensity (a.u.)

# Looked up one by one from above (two):
row,Sequence,binding signal
8,ACATTGCCCTACTCCTCACGCTCTTTCGATCTTCCTCCTCCGGAGTCACCTAGTGCAG,8120 fluorescence intensity (a.u.)
14,GGCTTTTTCTTTCGGGAGGAGGGATTTGGGTAGCAATGGCCGGAGTCACCTAGTGCAG,9720 fluorescence intensity (a.u.)
